In publication PMC9238395, “Identification and Tetramer Structure of Hemin-Binding Protein SPD_0310 Linked to Iron Homeostasis and Virulence of Streptococcus pneumoniae” (mSystems, 2022) one finds binding data, which are given here for two molecules.

Protein sequences, listed by entry. Tags and fused reporters are not part of them. Residues count along the entry.
UniProt P02769, residues 25-607: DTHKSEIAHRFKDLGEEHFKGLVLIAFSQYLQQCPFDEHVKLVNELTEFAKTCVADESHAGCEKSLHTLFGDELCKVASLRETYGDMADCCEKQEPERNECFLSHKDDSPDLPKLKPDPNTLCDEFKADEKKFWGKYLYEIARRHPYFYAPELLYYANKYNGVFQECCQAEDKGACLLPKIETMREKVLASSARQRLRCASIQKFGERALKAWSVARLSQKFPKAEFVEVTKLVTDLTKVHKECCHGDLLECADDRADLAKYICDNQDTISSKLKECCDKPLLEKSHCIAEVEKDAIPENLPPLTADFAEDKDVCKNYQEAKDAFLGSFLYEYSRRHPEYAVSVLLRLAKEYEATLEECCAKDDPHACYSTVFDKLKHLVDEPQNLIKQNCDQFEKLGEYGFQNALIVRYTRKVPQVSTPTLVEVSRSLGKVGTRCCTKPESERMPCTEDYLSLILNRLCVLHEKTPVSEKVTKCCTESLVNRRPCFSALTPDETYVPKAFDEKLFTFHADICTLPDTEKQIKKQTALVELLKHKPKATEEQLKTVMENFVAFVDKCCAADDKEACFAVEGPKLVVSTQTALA

No constants are given. Whether binding was seen depends on the method and setting.

Experiment [1] concerns the target T1, SPD_0310 (S. pneumoniae D39) (UniProt Q04MC1).
T1 sequence: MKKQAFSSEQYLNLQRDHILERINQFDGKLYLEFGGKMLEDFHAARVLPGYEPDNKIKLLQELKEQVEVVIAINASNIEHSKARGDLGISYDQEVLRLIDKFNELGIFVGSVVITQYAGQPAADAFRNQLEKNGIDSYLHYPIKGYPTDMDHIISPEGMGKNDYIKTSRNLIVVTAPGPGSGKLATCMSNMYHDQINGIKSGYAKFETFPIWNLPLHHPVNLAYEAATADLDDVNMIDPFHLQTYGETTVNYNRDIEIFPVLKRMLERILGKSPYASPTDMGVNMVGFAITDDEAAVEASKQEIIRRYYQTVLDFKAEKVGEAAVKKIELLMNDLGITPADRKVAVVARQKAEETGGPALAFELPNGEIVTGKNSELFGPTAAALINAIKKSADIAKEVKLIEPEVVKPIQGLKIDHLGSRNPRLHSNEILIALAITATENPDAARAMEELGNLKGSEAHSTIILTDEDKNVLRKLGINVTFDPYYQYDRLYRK
In words: SPR; OpenSPR; SPD_0310 immobilised on a gold nanoparticle COOH sensor chip; analytes in 1× PBS, 30 μL/min; regeneration with 0.5 to ~10 mM HCl; 1:1 model; both purified. A general note: SPR reads the build-up and loss of mass on a sensor chip optically.

Experiment [2] concerns the target T1, SPD_0310 (S. pneumoniae D39). The experiment is described as follows: dynamic light scattering; SPD_0310 in 1× PBS with 10% SDS, 25°C; both purified.

“bovine serum albumin (from UniProt P02769 25-607)”: the binding result in experiment [1] is on record as “no binding”.

B1: SPD_0310 (natural protein)
chain: MKKQAFSSEQYLNLQRDHILERINQFDGKLYLEFGGKMLEDFHAARVLPGYEPDNKIKLLQELKEQVEVVIAINASNIEHSKARGDLGISYDQEVLRLIDKFNELGIFVGSVVITQYAGQPAADAFRNQLEKNGIDSYLHYPIKGYPTDMDHIISPEGMGKNDYIKTSRNLIVVTAPGPGSGKLATCMSNMYHDQINGIKSGYAKFETFPIWNLPLHHPVNLAYEAATADLDDVNMIDPFHLQTYGETTVNYNRDIEIFPVLKRMLERILGKSPYASPTDMGVNMVGFAITDDEAAVEASKQEIIRRYYQTVLDFKAEKVGEAAVKKIELLMNDLGITPADRKVAVVARQKAEETGGPALAFELPNGEIVTGKNSELFGPTAAALINAIKKSADIAKEVKLIEPEVVKPIQGLKIDHLGSRNPRLHSNEILIALAITATENPDAARAMEELGNLKGSEAHSTIILTDEDKNVLRKLGINVTFDPYYQYDRLYRK
notes: SPD_0310, hypothetical protein of the UPF0371 family, S. pneumoniae D39; spd_0310 gene cloned from genomic DNA into pGEX-4T-1 (BamH I/Sal I); Homotetramer by crystal structure and DLS; also called apo-0310; apo-SPD_0310
For the molecule B1, the binding entry in experiment [2] was “no binding (condition: with 10% SDS)”.
